Experimental data: US20060270714A1, “Novel n-substituted 2-aminopyridine derivatives” (priority 2003, published 2006)
Counter-ions that a name gives are not always drawn. Some results were stated once for a whole list of compounds, not compound by compound.

Key:
[1] = target: T1, human form of induced nitric oxide synthase (Homo sapiens, UniProt P35228); assay: Screen 2: nitrite accumulation in cytokine-induced DLD-1 cells (Griess); type: cell-based; conditions: DLD-1 cells induced with gamma-IFN, TNF-alpha, IL-6, IL-1-beta; 5 hours with test compounds; read-out: IC50, inhibition of nitrite accumulation
T1 construct: Nitric oxide synthase was induced in cells by addition of medium containing human recombinant gamma-IFN; endogenous in cells; host or cells: DLD-1 human colorectal carcinoma cells (ECACC 90102540), induced with cytokines

[2] = target: T2, iNOS enzyme (Homo sapiens, UniProt P35228); assay: Screen 1: recombinant human NO synthase inhibition, L-[3H]citrulline formation; type: biochemical; conditions: recombinant human iNOS expressed in E. coli; 3 μM [3H]arginine; 60 min pre-incubation with NADPH; read-out: IC50 against the iNOS enzyme
T2 construct: made in house; host or cells: E. coli (crude lysate)

SMILES | IC50 [1] [µM] | IC50 [2] [µM]
Cc1ccnc(NCCSC[C@H](N)C(=O)O)c1 [Example 1, S-[2-[(4-Methyl-2-pyridinyl)amino]ethyl]-L-cysteine acetate] | < 100 | < 10
CCCC(CSC[C@H](N)C(=O)O)Nc1cc(C)ccn1 (stereo partly drawn) [Example 3, S-[2-[(4-Methyl-2-pyridinyl)amino]pentyl]-L-cysteine dihydrochloride] | < 100 | < 10
COc1ccnc(NCCSC[C@H](N)C(=O)O)c1 [Example 2, S-[2-[(4Methoxy-2-pyridinyl)amino]ethyl]-L-cysteine] | < 100 | < 10
